Among the data in patent US20240010722A1 are binding values, retold here.

Amino acid sequences for entries named in this document (tags omitted). Residues count along the entry.
UniProt Q61826, residues 22-405: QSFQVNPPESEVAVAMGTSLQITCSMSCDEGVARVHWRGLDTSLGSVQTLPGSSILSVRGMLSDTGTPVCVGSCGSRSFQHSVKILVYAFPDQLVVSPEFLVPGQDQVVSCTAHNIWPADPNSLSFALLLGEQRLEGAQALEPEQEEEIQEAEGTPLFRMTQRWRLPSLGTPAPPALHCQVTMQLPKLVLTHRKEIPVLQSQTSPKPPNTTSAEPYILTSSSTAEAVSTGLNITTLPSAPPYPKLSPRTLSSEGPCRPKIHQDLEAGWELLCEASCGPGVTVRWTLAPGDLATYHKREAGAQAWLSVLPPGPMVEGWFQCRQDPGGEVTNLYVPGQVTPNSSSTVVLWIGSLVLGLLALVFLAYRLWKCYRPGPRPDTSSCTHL

Results are given in words; binding and its absence hold for the method and conditions named. Some binding calls cover weakened binding; strength is not graded here.

Assay [1] concerns the target T1, human MAdCAM on CHO cells (human) (UniProt Q13477).
T1 sequence (looked up): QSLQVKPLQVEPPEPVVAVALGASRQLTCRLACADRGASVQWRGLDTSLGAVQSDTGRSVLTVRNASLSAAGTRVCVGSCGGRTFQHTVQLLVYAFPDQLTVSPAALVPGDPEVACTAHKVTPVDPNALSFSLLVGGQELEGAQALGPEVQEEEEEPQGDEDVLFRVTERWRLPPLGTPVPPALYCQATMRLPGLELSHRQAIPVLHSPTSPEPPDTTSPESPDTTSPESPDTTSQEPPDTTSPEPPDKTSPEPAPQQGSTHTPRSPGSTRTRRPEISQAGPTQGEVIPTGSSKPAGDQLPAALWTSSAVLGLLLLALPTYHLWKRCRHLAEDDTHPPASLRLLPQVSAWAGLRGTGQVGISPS
In words: flow cytometry on CHO cells.

The target in assay [2] is murine MAdCAM on cells (mouse) (UniProt Q61826). Kind of assay: flow cytometry on CHO cells.

B1: MIAB197 (antibody, V domains shown)
VH: EVQLLESGGGLVQPGGSLRLSCAASGFTFSDFWMHWVRQAPGKGLEWISYISGDSGYTNYADSVKGRFTISRDNSKNTLYLQMNSLRAEDTAVYYCARDRPYYYIMDVWGKGTTVTVSS
VL: DIQMTQSPSSLSASVGDRVTITCRASQSISRSLAWYQQKPGKAPKLLIYAASSLQSGVPSRFSGSGSGTDFTLTISSLQPEDFATYYCQQYKSYPVTFGQGTKVEIK
Turning to B1, the binding entry in assay [1] and in assay [2] was “binds” in each case.
